# In the supplement of paper PMC8728848:
# Some of the results follow.
# B1: HopZSSI-T (Helicobacter pylori), B5Z6D0 (protein)
# chain: MGSSHHHHHHSSGLVPRGSHMENLYFQGEDNGFFISAGYQIGEAAQMVKNTGELKKLSDTYENLSNLLTNFNNLNQAVTNASSPSEINAAIDNLKANTQGLTGEKTNSPAYQAVYLALNAAVGLWNVIAYNVQCGPGNSSQQSVTFEGQPGHNSSSINCNLTGYNNGVSGPLSIDNFKQLNQAYQVLQQALKQGVPVLNNTNQKIEVKVTTQTNGQSSKETTTTTTTNDAQTLLQEASKMIDVLTTNCPWVNHNPGQNGGAPWGLIRQECVSGFATEFSAVTSMIKNAQEIVTQAQSLNANQNNQNAPQDFNPYTSADRAFAQNMLNHAQAQAKILELADQMKKDLNTIPSQFITNYLAACRIDGTTPSQGVTNNTWGAGCAYVEETITALNNSLAHFGTQAEQIKQSELLARTILDFRGSLSTLNSTYNSITTTASNTPNSPFLKNLISQSTNPNNPGGLQAVYQVNQSAYSQLLSATQELGHNPFRRIGLISSQT
# How the values were obtained:
# Experiment in all cases: glycan array binding signal (z-score within array); higher = stronger binding
# Details in all cases: glycan notation: IUPAC condensed, linker removed
# [1] = biological target: Fuc(a1-2)Gal(b1-4)GlcNAc(b1-3)Gal(b1-4)GlcNAc(b1-2)Man(a1-3)[Fuc(a1-2)Gal(b1-4)GlcNAc(b1-3)Gal(b1-4)GlcNAc(b1-2)Man(a1-6)]Man(b1-4)GlcNAc(b1-4)GlcNAc
# How it was run: (§1)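 Glycan array data were curated from 3228 arrays in the Consortium for Functional Glycomics database and kept only where the protein sequence was available. Glycan names were converted to IUPAC-condensed notation, and columns mapping to the same glycan were averaged. The binding signal is a within-array Z-score, averaged across arrays of the same protein sequence at different concentrations or buffers and across linkers. Negative Z-scores can be read as non-binding.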
# [2] = biological target: Fuc(a1-2)Gal(b1-4)GlcNAc(b1-3)Gal(b1-4)GlcNAc(b1-3)Gal(b1-4)GlcNAc
# How it was run: as §1
# [3] = biological target: Fuc(a1-2)Gal(b1-4)GlcNAc(b1-3)GalNAc
# How it was run: as §1
# [4] = biological target: Fuc(a1-2)Gal(b1-4)GlcNAc(b1-3)[Fuc(a1-2)Gal(b1-4)GlcNAc(b1-6)]GalNAc
# How it was run: as §1
# [5] = biological target: Fuc(a1-2)Gal(b1-4)GlcNAc(b1-3)[Fuc(a1-3)[Gal(b1-4)]GlcNAc(b1-6)]Gal(b1-4)Glc
# How it was run: as §1
# [6] = biological target: Fuc(a1-2)Gal(b1-4)GlcNAc(b1-6)GalNAc
# How it was run: as §1
# [7] = biological target: Fuc(a1-2)Gal(b1-4)GlcNAc6S
# How it was run: as §1
# [8] = biological target: Fuc(a1-2)Gal(b1-4)[Fuc(a1-3)]GlcNAc
# How it was run: as §1
# [9] = biological target: Fuc(a1-2)Gal(b1-4)[Fuc(a1-3)]GlcNAc(b1-2)Man(a1-3)[Fuc(a1-2)Gal(b1-4)[Fuc(a1-3)]GlcNAc(b1-2)Man(a1-6)]Man(b1-4)GlcNAc(b1-4)[Fuc(a1-6)]GlcNAc
# How it was run: as §1
# [10] = biological target: Fuc(a1-2)Gal(b1-4)[Fuc(a1-3)]GlcNAc(b1-2)[Fuc(a1-2)Gal(b1-4)[Fuc(a1-3)]GlcNAc(b1-4)]Man(a1-3)[Fuc(a1-2)Gal(b1-4)[Fuc(a1-3)]GlcNAc(b1-2)Man(a1-6)]Man(b1-4)GlcNAc(b1-4)GlcNAc
# How it was run: as §1
# [11] = biological target: Fuc(a1-2)Gal(b1-4)[Fuc(a1-3)]GlcNAc(b1-3)Gal(b1-4)[Fuc(a1-3)]GlcNAc
# How it was run: as §1
# [12] = biological target: Fuc(a1-2)Gal(b1-4)[Fuc(a1-3)]GlcNAc(b1-3)Gal(b1-4)[Fuc(a1-3)]GlcNAc(b1-3)Gal(b1-4)[Fuc(a1-3)]GlcNAc
# How it was run: as §1
# [13] = biological target: Fuc(a1-2)Gal(b1-4)[Fuc(a1-3)]GlcNAc(b1-3)GalNAc
# How it was run: as §1
# [14] = biological target: Fuc(a1-2)Gal(b1-4)[Fuc(a1-3)]GlcNAc(b1-3)[Neu5Ac(a2-6)Gal(b1-4)GlcNAc(b1-6)]Gal(b1-4)Glc
# How it was run: as §1
# [15] = biological target: Fuc(a1-2)Gal3S(b1-4)GlcNAc
# How it was run: as §1
# [16] = biological target: Fuc(a1-2)Gal6S(b1-3)GlcNAc
# How it was run: as §1
# [17] = biological target: Fuc(a1-2)Gal6S(b1-3)GlcNAc6S
# How it was run: as §1
# Fuc(a1-2)Gal6S(b1-4)Glc = biological target: Fuc(a1-2)Gal6S(b1-4)Glc
# How it was run: as §1
# [18] = biological target: Fuc(a1-2)Gal6S(b1-4)Glc6S
# How it was run: as §1
# Fuc(a1-2)[Gal(a1-3)]Gal = biological target: Fuc(a1-2)[Gal(a1-3)]Gal
# How it was run: as §1
# [19] = biological target: Fuc(a1-2)[Gal(a1-3)]Gal(b1-3)GalNAc
# How it was run: as §1
# [20] = biological target: Fuc(a1-2)[Gal(a1-3)]Gal(b1-3)GalNAc(b1-3)Gal(a1-4)Gal(b1-4)Glc
# How it was run: as §1
# [21] = biological target: Fuc(a1-2)[Gal(a1-3)]Gal(b1-3)GlcNAc
# How it was run: as §1
# [22] = biological target: Fuc(a1-2)[Gal(a1-3)]Gal(b1-3)GlcNAc(b1-2)Man(a1-3)[Fuc(a1-2)[Gal(a1-3)]Gal(b1-3)GlcNAc(b1-2)Man(a1-6)]Man(b1-4)GlcNAc(b1-4)GlcNAc
# How it was run: as §1
# [23] = biological target: Fuc(a1-2)[Gal(a1-3)]Gal(b1-3)GlcNAc(b1-2)Man(a1-3)[Fuc(a1-2)[Gal(a1-3)]Gal(b1-3)GlcNAc(b1-2)Man(a1-6)]Man(b1-4)GlcNAc(b1-4)[Fuc(a1-6)]GlcNAc
# How it was run: as §1
# [24] = biological target: Fuc(a1-2)[Gal(a1-3)]Gal(b1-3)GlcNAc(b1-3)GalNAc
# How it was run: as §1
# [25] = biological target: Fuc(a1-2)[Gal(a1-3)]Gal(b1-3)GlcNAc(b1-6)GalNAc
# How it was run: as §1
# [26] = biological target: Fuc(a1-2)[Gal(a1-3)]Gal(b1-4)Glc
# How it was run: as §1
# [27] = biological target: Fuc(a1-2)[Gal(a1-3)]Gal(b1-4)GlcNAc
# How it was run: as §1
# [28] = biological target: Fuc(a1-2)[Gal(a1-3)]Gal(b1-4)GlcNAc(b1-2)Man
# How it was run: as §1
# [29] = biological target: Fuc(a1-2)[Gal(a1-3)]Gal(b1-4)GlcNAc(b1-2)Man(a1-3)[Fuc(a1-2)[Gal(a1-3)]Gal(b1-4)GlcNAc(b1-2)Man(a1-6)]Man(b1-4)GlcNAc(b1-4)GlcNAc
# How it was run: as §1
# [30] = biological target: Fuc(a1-2)[Gal(a1-3)]Gal(b1-4)GlcNAc(b1-2)Man(a1-3)[Fuc(a1-2)[Gal(a1-3)]Gal(b1-4)GlcNAc(b1-2)Man(a1-6)]Man(b1-4)GlcNAc(b1-4)[Fuc(a1-6)]GlcNAc
# How it was run: as §1
# [31] = biological target: Fuc(a1-2)[Gal(a1-3)]Gal(b1-4)GlcNAc(b1-3)GalNAc
# How it was run: as §1
# [32] = biological target: Fuc(a1-2)[Gal(a1-3)]Gal(b1-4)GlcNAc(b1-6)GalNAc
# How it was run: as §1
# [33] = biological target: Fuc(a1-2)[Gal(a1-3)]Gal(b1-4)[Fuc(a1-3)]Glc
# How it was run: as §1
# [34] = biological target: Fuc(a1-2)[Gal(a1-3)]Gal(b1-4)[Fuc(a1-3)]GlcNAc
# How it was run: as §1
# [35] = biological target: Fuc(a1-2)[Gal(a1-3)]Gal(b1-4)[Fuc(a1-3)]GlcNAc(b1-3)GalNAc
# How it was run: as §1
binder,measurement,setting,value
B1,glycan array binding signal (z-score),[1],0.473
same,glycan array binding signal (z-score),[2],1.29
same,glycan array binding signal (z-score),[3],-0.672
same,glycan array binding signal (z-score),[4],0.122
same,glycan array binding signal (z-score),[5],0.537
same,glycan array binding signal (z-score),[6],0.509
same,glycan array binding signal (z-score),[7],0.416
same,glycan array binding signal (z-score),[8],-0.221
same,glycan array binding signal (z-score),[9],1.17
same,glycan array binding signal (z-score),[10],1.05
same,glycan array binding signal (z-score),[11],0.227
same,glycan array binding signal (z-score),[12],0.188
same,glycan array binding signal (z-score),[13],0.139
same,glycan array binding signal (z-score),[14],-0.243
same,glycan array binding signal (z-score),[15],-0.691
same,glycan array binding signal (z-score),[16],-0.147
same,glycan array binding signal (z-score),[17],0.184
same,glycan array binding signal (z-score),Fuc(a1-2)Gal6S(b1-4)Glc,-0.444
same,glycan array binding signal (z-score),[18],-0.497
same,glycan array binding signal (z-score),Fuc(a1-2)[Gal(a1-3)]Gal,-0.342
same,glycan array binding signal (z-score),[19],0.252
same,glycan array binding signal (z-score),[20],0.585
same,glycan array binding signal (z-score),[21],0.455
same,glycan array binding signal (z-score),[22],-0.111
same,glycan array binding signal (z-score),[23],-0.261
same,glycan array binding signal (z-score),[24],-0.21
same,glycan array binding signal (z-score),[25],-0.366
same,glycan array binding signal (z-score),[26],-0.624
same,glycan array binding signal (z-score),[27],-0.478
same,glycan array binding signal (z-score),[28],-0.277
same,glycan array binding signal (z-score),[29],-0.08
same,glycan array binding signal (z-score),[30],-0.217
same,glycan array binding signal (z-score),[31],-0.158
same,glycan array binding signal (z-score),[32],-0.49
same,glycan array binding signal (z-score),[33],-0.716
same,glycan array binding signal (z-score),[34],0.174
same,glycan array binding signal (z-score),[35],-0.229

# Some of the entries so far, with tabs.
binder	measurement	setting	value
B1	glycan array binding signal (z-score)	[5]	0.537
same	glycan array binding signal (z-score)	[6]	0.509
